# Data: patent US10947273B2 (Institut Europeen de Biologie Cellulaire, priority 2015, dated 2021)
# The star is where a group is joined. Palmitoyl = CCCCCCCCCCCCCCCC(=O)*
# Assay: general procedure: Fmoc solid-phase peptide synthesis; Rink-amide resin; HBTU/DIEA
# Conditions: whole synthesis
Substance,final purity (method not given) [%],isolated yield [%]
Palmitoyl-RPAK-OH,99,60
Palmitoyl-ARAAK-NH2,93,60
Palmitoyl-AAPAK-NH2,99,75
"Chol-Ala-Arg-Pro-Ala-Lys-NH2 (ARPAK; N-cholesteryl, C-amide; BINDING (1)..(1) Chol-Ala; MOD_RES (5)..(5) AMIDATION)",97,50
Palmitoyl-ARPAK-NH2,93,40
